# According to the supplement of paper PMC6414424:
# Structures can show the parent of a compound that is named as a salt. ± gives the standard deviation of the averaged measurements. Some of the results follow.
# Test system: APPdp1-6 iPSC-derived neurons
# Assay: pThr231Tau/total Tau ratio Z-score vs DMSO vehicle wells; higher = more pThr231Tau relative to total Tau
# Conditions: 5 µM; treatment time 5 days
row,Structure (SMILES),pThr231Tau/total Tau ratio Z-score
1,CCOc1ccccc1OCC1CNCCO1 (centres undefined) [Prestw-1361],-0.844 ± 2
2,"O=C(Nc1ccc(C(=O)O)c(O)c1)c1ccccc1 [BENZOYLPAS, antibacterial, tuberculostatic]",0.816 ± 1.1
3,CCCCOC(=O)c1ccc(N)cc1 [Prestw-761],0.187 ± 0.083
4,CN(C)/N=N/c1nc[nH]c1C(N)=O [Prestw-574],2.11 ± 3.8
5,O=C1NCN(c2ccccc2)C12CCN(CCCC(c1ccc(F)cc1)c1ccc(F)cc1)CC2 [Prestw-906],-2.87 ± 0.3
6,CC(C)(C)C(=O)OCOC(=O)[C@@H]1N2C(=O)[C@@H](NC(=O)[C@H](N)c3ccccc3)[C@H]2SC1(C)C [Prestw-1009],-0.38 ± 0.056
7,CCCCC(CC)CN1CN(CC(CC)CCCC)CC(C)(N)C1 (centres undefined) [Prestw-551],0.633 ± 2
8,COc1cc2c(cc1OC)C(=O)C(CC1CCN(Cc3ccccc3)CC1)C2 (centres undefined),0.17 ± 0.84
9,NC(N)=NCc1cccc(I)c1 [Prestw-490],0.221 ± 0.2
10,CC1CCC(C(C)C)C(O)C1 (centres undefined) [Menthol],0.796 ± 1.8
11,"CNCC[C@H](Oc1cccc2ccccc12)c1cccs1 [DULOXETINE HYDROCHLORIDE, antidepressant]",-1.87 ± 0.76
12,O=C(CCCN1CCC(O)(c2ccc(Br)cc2)CC1)c1ccc(F)cc1 [Prestw-509],-0.285 ± 0.42
13,CC(=O)c1ccc2c(c1)N(CCCN1CCC(CCO)CC1)c1ccccc1S2 [Prestw-1048],-1.94 ± 1
14,COc1cc(Cc2cnc(N)nc2N)cc(OC)c1OC [Prestw-208],0.645 ± 1.5
15,COc1cc(-c2ccc(N=Nc3ccc4c(S(=O)(=O)O)cc(S(=O)(=O)O)c(N)c4c3O)c(OC)c2)ccc1N=Nc1ccc2c(S(=O)(=O)O)cc(S(=O)(=O)O)c(N)c2c1O [Prestw-425],-0.421 ± 0.08
16,CCN(CC)CCOC(=O)C(c1ccccc1)C1CCCCC1 (centres undefined) [Prestw-789],-0.591 ± 0.9
17,"COCC1=C(C(=O)OC(C)OC(=O)OC(C)C)N2C(=O)[C@@H](NC(=O)/C(=N\OC)c3csc(N)n3)[C@H]2SC1 (some centres undefined) [CEFPODOXIME PROXETIL, antibacterial]",1.35 ± 1.7
18,O=C(Nc1ccccc1)c1ccccc1O,1.07 ± 0.49
19,"CO/N=C(\C(=O)N[C@@H]1C(=O)N2C(C(=O)O)=C(CSc3nc(=O)c(=O)[nH]n3C)CS[C@H]12)c1csc(N)n1 [CEFTRIAXONE SODIUM TRIHYDRATE, antibacterial]",1.45 ± 0.74
20,Cn1c(=O)c2[nH]cnc2n(C)c1=O [Prestw-820],0.192 ± 0.044

row,Structure (SMILES),pThr231Tau/total Tau ratio Z-score
1,Cn1c(=O)c2[nH]cnc2n(C)c1=O [Prestw-873],0.885 ± 0.19
2,CS(=O)(=O)c1ccc(C2=C(c3ccccc3)C(=O)OC2)cc1 [Prestw-1336],-0.298 ± 2.4
3,Cc1[nH]c(=O)c(C#N)cc1-c1ccncc1 [Prestw-1065],-0.373 ± 0.5
4,CN(C)CCC=C1c2ccccc2CCc2ccccc21 [Prestw-74],-0.482 ± 0.14
5,N=C(N)N [Guanidine],-0.0821 ± 0.23
6,C[C@]12CC[C@H]3C(=CCc4cc(O)ccc43)[C@@H]1CCC2=O [Prestw-850],-2.03 ± 0.58
7,C[C@]12C=CC(=O)C=C1CC[C@@H]1[C@@H]2[C@@H](O)C[C@@]2(C)[C@H]1CC[C@]2(O)C(=O)COP(=O)(O)O,0.898 ± 1.6
8,C=C[C@H]1CN2CC[C@H]1C[C@@H]2[C@@H](O)c1ccnc2ccc(OC)cc12 [Prestw-280],0.0845 ± 1.1
9,Cc1c(C(N)=O)cc([N+](=O)[O-])cc1[N+](=O)[O-] [DINITOLMIDE    Therap cat:  antiprotozoal],0.508 ± 0.12
10,Cc1cccc(C)c1NC(=O)C1CCCCN1C (centres undefined) [Prestw-1280],2.67 ± 1.9
11,COc1ccc(C2C(=O)c3ccccc3C2=O)cc1 [ANISINDIONE    Therap cat: anticoagulant],0.998 ± 1.2
12,Cc1ncc([N+](=O)[O-])n1CC(O)CCl (centres undefined) [Prestw-164],0.189 ± 1.4
13,CN1C(C(=O)Nc2ccccn2)=C(O)c2sccc2S1(=O)=O [Prestw-527],1.83 ± 0.053
14,CC(C(=O)O)c1ccc(C(=O)c2ccccc2)s1 (centres undefined) [Prestw-496],0.784 ± 0.62
15,C=C1CCC(O)CC1=CC=C1CCCC2(C)C1CCC2C(C)C=CC(C)C(C)C (centres undefined) [ERGOCALCIFEROL    Therap cat:  Antirachitic vitamin],0.087 ± 0.26
16,CC(=O)N(CC(O)CN(C(C)=O)c1c(I)c(C(=O)NCC(O)CO)c(I)c(C(=O)NCC(O)CO)c1I)c1c(I)c(C(=O)NCC(O)CO)c(I)c(C(=O)NCC(O)CO)c1I (centres undefined) [Prestw-848],0.0292 ± 2.5
17,c1ccc(CN(CC2=NCCN2)c2ccccc2)cc1 [Prestw-258],-0.796 ± 0.63
18,CN(C)CC/C=C1/c2ccccc2COc2ccc(CC(=O)O)cc21 [Prestw-1307],-0.5 ± 1.2
19,C=CCSCC1Nc2cc(Cl)c(S(N)(=O)=O)cc2S(=O)(=O)N1 (centres undefined) [Prestw-721],-0.198 ± 0.15

# Reprinted from above for reference:
row,Structure (SMILES),pThr231Tau/total Tau ratio Z-score
5,N=C(N)N [Guanidine],-0.0821 ± 0.23
6,C[C@]12CC[C@H]3C(=CCc4cc(O)ccc43)[C@@H]1CCC2=O [Prestw-850],-2.03 ± 0.58
7,C[C@]12C=CC(=O)C=C1CC[C@@H]1[C@@H]2[C@@H](O)C[C@@]2(C)[C@H]1CC[C@]2(O)C(=O)COP(=O)(O)O,0.898 ± 1.6
